Tested on: mSWI/SNF complexes
Assay: mSWI/SNF complex purification with HA-tagged baits and mass spectrometry (peptide counts)
Set-up: species or system human
[1] = 293_HA-BRD7 bait purification, mass spectrometry, total peptides per co-purified protein
[2] = 293_HA-BRD7 bait purification, mass spectrometry, unique peptides per co-purified protein

B1: HM13 (protein, UniProt Q8TCT9 1-377, looked up)
Signal peptide peptidase: MDSALSDPHNGSAEAGGPTNSTTRPPSTPEGIALAYGSLLLMALLPIFFGALRSVRCARGKNASDMPETITSRDAARFPIIASCTLLGLYLFFKIFSQEYINLLLSMYFFVLGILALSHTISPFMNKFFPASFPNRQYQLLFTQGSGENKEEIINYEFDTKDLVCLGLSSIVGVWYLLRKHWIANNLFGLAFSLNGVELLHLNNVSTGCILLGGLFIYDVFWVFGTNVMVTVAKSFEAPIKLVFPQDLLEKGLEANNFAMLGLGDVVIPGIFIALLLRFDISLKKNTHTYFYTSFAAYIFGLGLTIFIMHIFKHAQPALLYLVPACIGFPVLVALAKGEVTEMFSYEESNPKDPAAVTESKEGTEASASKGLEKKEK
- Total [1]: 3
- Unique [2]: 2

B2: CDC5L (protein, UniProt Q99459 1-802, looked up)
Cell division cycle 5-like …: MPRIMIKGGVWRNTEDEILKAAVMKYGKNQWSRIASLLHRKSAKQCKARWYEWLDPSIKKTEWSREEEEKLLHLAKLMPTQWRTIAPIIGRTAAQCLEHYEFLLDKAAQRDNEEETTDDPRKLKPGEIDPNPETKPARPDPIDMDEDELEMLSEARARLANTQGKKAKRKAREKQLEEARRLAALQKRRELRAAGIEIQKKRKRKRGVDYNAEIPFEKKPALGFYDTSEENYQALDADFRKLRQQDLDGELRSEKEGRDRKKDKQHLKRKKESDLPSAILQTSGVSEFTKKRSKLVLPAPQISDAELQEVVKVGQASEIARQTAEESGITNSASSTLLSEYNVTNNSVALRTPRTPASQDRILQEAQNLMALTNVDTPLKGGLNTPLHESDFSGVTPQRQVVQTPNTVLSTPFRTPSNGAEGLTPRSGTTPKPVINSTPGRTPLRDKLNINPEDGMADYSDPSYVKQMERESREHLRLGLLGLPAPKNDFEIVLPENAEKELEEREIDDTYIEDAADVDARKQAIRDAERVKEMKRMHKAVQKDLPRPSEVNETILRPLNVEPPLTDLQKSEELIKKEMITMLHYDLLHHPYEPSGNKKGKTVGFGTNNSEHITYLEHNPYEKFSKEELKKAQDVLVQEMEVVKQGMSHGELSSEAYNQVWEECYSQVLYLPGQSRYTRANLASKKDRIESLEKRLEINRGHMTTEAKRAAKMEKKMKILLGGYQSRAMGLMKQLNDLWDQIEQAHLELRTFEELKKHEDSAIPRRLECLKEDVQRQQEREKELQHRYADLLLEKETLKSKF
- Total [1]: 3
- Unique [2]: 2

B3: EWSR1 (protein, UniProt Q01844 1-656, looked up)
RNA-binding protein EWS: MASTDYSTYSQAAAQQGYSAYTAQPTQGYAQTTQAYGQQSYGTYGQPTDVSYTQAQTTATYGQTAYATSYGQPPTGYTTPTAPQAYSQPVQGYGTGAYDTTTATVTTTQASYAAQSAYGTQPAYPAYGQQPAATAPTRPQDGNKPTETSQPQSSTGGYNQPSLGYGQSNYSYPQVPGSYPMQPVTAPPSYPPTSYSSTQPTSYDQSSYSQQNTYGQPSSYGQQSSYGQQSSYGQQPPTSYPPQTGSYSQAPSQYSQQSSSYGQQSSFRQDHPSSMGVYGQESGGFSGPGENRSMSGPDNRGRGRGGFDRGGMSRGGRGGGRGGMGSAGERGGFNKPGGPMDEGPDLDLGPPVDPDEDSDNSAIYVQGLNDSVTLDDLADFFKQCGVVKMNKRTGQPMIHIYLDKETGKPKGDATVSYEDPPTAKAAVEWFDGKDFQGSKLKVSLARKKPPMNSMRGGLPPREGRGMPPPLRGGPGGPGGPGGPMGRMGGRGGDRGGFPPRGPRGSRGNPSGGGNVQHRAGDWQCPNPGCGNQNFAWRTECNQCKAPKPEGFLPPPFPPPGGDRGRGGPGGMRGGRGGLMDRGGPGGMFRGGRGGDRGGFRGGRGMDRGGFGGGRRGGPGGPPGPLMEQMGGRRGGRGGPGKMDKGEHRQERRDRPY
- Total [1]: 2
- Unique [2]: 2

B4: DAZAP1 (protein, UniProt Q96EP5 1-407, looked up)
DAZ-associated protein 1: MNNSGADEIGKLFVGGLDWSTTQETLRSYFSQYGEVVDCVIMKDKTTNQSRGFGFVKFKDPNCVGTVLASRPHTLDGRNIDPKPCTPRGMQPERTRPKEGWQKGPRSDNSKSNKIFVGGIPHNCGETELREYFKKFGVVTEVVMIYDAEKQRPRGFGFITFEDEQSVDQAVNMHFHDIMGKKVEVKRAEPRDSKSQAPGQPGASQWGSRVVPNAANGWAGQPPPTWQQGYGPQGMWVPAGQAIGGYGPPPAGRGAPPPPPPFTSYIVSTPPGGFPPPQGFPQGYGAPPQFSFGYGPPPPPPDQFAPPGVPPPPATPGAAPLAFPPPPSQAAPDMSKPPTAQPDFPYGQYAGYGQDLSGFGQGFSDPSQQPPSYGGPSVPGSGGPPAGGSGFGRGQNHNVQGFHPYRR
- Total [1]: 2
- Unique [2]: 2

B5: ATP5F1 (protein, UniProt P24539 43-256, looked up)
ATP synthase peripheral stalk …: PVPPLPEYGGKVRYGLIPEEFFQFLYPKTGVTGPYVLGTGLILYALSKEIYVISAETFTALSVLGVMVYGIKKYGPFVADFADKLNEQKLAQLEEAKQASIQHIQNAIDTEKSQQALVQKRHYLFDVQRNNIAMALEVTYRERLYRVYKEVKNRLDYHISVQNMMRRKEQEHMINWVEKHVVQSISTQQEKETIAKCIADLKLLAKKAQAQPVM
- Total [1]: 3
- Unique [2]: 3

B6: HNRNPA0 (protein, UniProt Q13151 1-305, looked up)
Heterogeneous nuclear …: MENSQLCKLFIGGLNVQTSESGLRGHFEAFGTLTDCVVVVNPQTKRSRCFGFVTYSNVEEADAAMAASPHAVDGNTVELKRAVSREDSARPGAHAKVKKLFVGGLKGDVAEGDLIEHFSQFGTVEKAEIIADKQSGKKRGFGFVYFQNHDAADKAAVVKFHPIQGHRVEVKKAVPKEDIYSGGGGGGSRSSRGGRGGRGRGGGRDQNGLSKGGGGGYNSYGGYGGGGGGGYNAYGGGGGGSSYGGSDYGNGFGGFGSYSQHQSSYGPMKSGGGGGGGGSSWGGRSNSGPYRGGYGGGGGYGGSSF
- Total [1]: 3
- Unique [2]: 2

B7: ZCCHC17 (protein, UniProt Q9NP64 1-241, looked up)
Zinc finger CCHC …: MNSGRPETMENLPALYTIFQGEVAMVTDYGAFIKIPGCRKQGLVHRTHMSSCRVDKPSEIVDVGDKVWVKLIGREMKNDRIKVSLSMKVVNQGTGKDLDPNNVIIEQEERRRRSFQDYTGQKITLEAVLNTTCKKCGCKGHFAKDCFMQPGGTKYSLIPDEEEEKEEAKSAEFEKPDPTRNPSRKRKKEKKKKKHRDRKSSDSDSSDSESDTGKRARHTSKDSKAAKKKKKKKKHKKKHKE
- Total [1]: 3
- Unique [2]: 2

B8: SMARCD3 (protein)
chain: AADEVAGGARKATKSKLFEFLVHGVRPGMPSGARMPHQGAPMGPPGSPYMGSPAVRPGLAPAGMEPARKRAAPPPGQSQAQSQGQPVPTAPARSRSAKRRKMADKILPQRIRELVPESQAYMDLLAFERKLDQTIMRKRVDIQEALKRPMKQKRKLRLYISNTFNPAKPDAEDSDGSIASWELRVEGKLLDDPSKQKRKFSSFFKSLVIELDKDLYGPDNHLVEWHRTPTTQETDGFQVKRPGDLSVRCTLLLMLDYQPPQFKLDPRLARLLGLHTQSRSAIVQALWQYVKTNRLQDSHDKEYINGDKYFQQIFDCPRLKFSEIPQRLTALLLPPDPIVINHVISVDPSDQKKTACYDIDVEVEEPLKGQMSSFLLSTANQQEISALDSKIHETIESINQLKIQRDFMLSFSRDPKGYVQDLLRSQSRDLKVMTDVAGNPEEERRAEFYHQPWSQEAVSRYFYCKIQQRRQELEQSLVVRNT
- Total (293_HA-BRD7: HA-BRD7 bait purification, total peptide count per co-purified protein): 23
- Unique (293_HA-BRD7: HA-BRD7 bait purification, unique peptide count per co-purified protein): 20
- Total (293_HA-DPF2 purification, total peptides): 23
- Unique (293_HA-DPF2 purification, unique peptides): 20

B9: ATP5L (protein, UniProt O75964 2-103, looked up)
ATP synthase F(0) complex …: AQFVRNLVEKTPALVNAAVTYSKPRLATFWYYAKVELVPPTPAEIPRAIQSLKKIVNSAQTGSFKQLTVKEAVLNGLVATEVLMWFYVGEIIGKRGIIGYDV
- Total [1]: 3
- Unique [2]: 3

B10: TMCO1 (protein, UniProt Q9UM00 1-239, looked up)
Calcium load-activated …: MPRKRKCDLRAVRVGLLLGGGGVYGSRFRFTFPGCRALSPWRVRVQRRRCEMSTMFADTLLIVFISVCTALLAEGITWVLVYRTDKYKRLKAEVEKQSKKLEKKKETITESAGRQQKKKIERQEEKLKNNNRDLSMVRMKSMFAIGFCFTALMGMFNSIFDGRVVAKLPFTPLSYIQGLSHRNLLGDDTTDCSFIFLYILCTMSIRQNIQKILGLAPSRAATKQAGGFLGPPPPSGKFS
- Total [1]: 3
- Unique [2]: 3

B11: IRS4 (protein, UniProt O14654 1-1257, looked up)
Insulin receptor substrate 4: MASCSFTRDQATRRLRGAAAAAAAALAAVVTTPLLSSGTPTALIGTGSSCPGAMWLSTATGSRSDSESEEEDLPVGEEVCKRGYLRKQKHGHRRYFVLKLETADAPARLEYYENARKFRHSVRAAAAAAAAAASGAAIPPLIPPRRVITLYQCFSVSQRADARYRHLIALFTQDEYFAMVAENESEQESWYLLLSRLILESKRRRCGTLGAQPDGEPAALAAAAAAEPPFYKDVWQVIVKPRGLGHRKELSGVFRLCLTDEEVVFVRLNTEVASVVVQLLSIRRCGHSEQYFFLEVGRSTVIGPGELWMQVDDCVVAQNMHELFLEKMRALCADEYRARCRSYSISIGAHLLTLLSARRHLGLVPLEPGGWLRRSRFEQFCHLRAIGDGEDEMLFTRRFVTPSEPVAHSRRGRLHLPRGRRSRRAVSVPASFFRRLAPSPARPRHPAEAPNNGARLSSEVSGSGSGNFGEEGNPQGKEDQEGSGGDYMPMNNWGSGNGRGSGGGQGSNGQGSSSHSSGGNQCSGEGQGSRGGQGSNGQGSGGNQCSRDGQGTAGGHGSGGGQRPGGGHGSGGGQGPGDGHGSGGGKNSGGGKGSGSGKGSDGDGERGKSLKKRSYFGKLTQSKQQQMPPPPPPPPPPPPAGGTGGKGKSGGRFRLYFCVDRGATKECKEAKEVKDAEIPEGAARGPHRARAFDEDEDDPYVPMRPGVATPLVSSSDYMPMAPQNVSASKKRHSRSPFEDSRGYMMMFPRVSPPPAPSPPKAPDTNKEDDSKDNDSESDYMFMAPGAGAIPKNPRNPQGGSSSKSWSSYFSLPNPFRSSPLGQNDNSEYVPMLPGKFLGRGLDKEVSYNWDPKDAASKPSGEGSFSKPGDGGSPSKPSDHEPPKNKAKRPNRLSFITKGYKIKPKPQKPTHEQREADSSSDYVNMDFTKRESNTPAPSTQGLPDSWGIIAEPRQSAFSNYVNVEFGVPFPNPANDLSDLLRAIPRANPLSLDSARWPLPPLPLSATGSNAIEEEGDYIEVIFNSAMTPAMALADSAIRYDAETGRIYVVDPFSECCMDISLSPSRCSEPPPVARLLQEEEQERRRPQSRSQSFFAAARAAVSAFPTDSLERDLSPSSAPAVASAAEPTLALSQVVAAASALAAAPGIGAAAAAAGFDSASARWFQPVANAADAEAVRGAQDVAGGSNPGAHNPSANLARGDNQAGGAAAAAAAPEPPPRSRRVPRPPEREDSDNDDDTHVRMDFARRDNQFDSPKRGR
- Total [1]: 3
- Unique [2]: 3

B12: TRA2B (protein, UniProt P62995 2-288, looked up)
Transformer-2 protein homolog …: SDSGEQNYGERESRSASRSGSAHGSGKSARHTPARSRSKEDSRRSRSKSRSRSESRSRSRRSSRRHYTRSRSRSRSHRRSRSRSYSRDYRRRHSHSHSPMSTRRRHVGNRANPDPNCCLGVFGLSLYTTERDLREVFSKYGPIADVSIVYDQQSRRSRGFAFVYFENVDDAKEAKERANGMELDGRRIRVDFSITKRPHTPTPGIYMGRPTYGSSRRRDYYDRGYDRGYDDRDYYSRSYRGGGGGGGGWRAAQDRDQIYRRRSPSPYYSRGGYRSRSRSRSYSPRRY
- Total [1]: 2
- Unique [2]: 2

Reference: patent publication US12729225B2, “Non-canonical SWI/SNF complex and uses thereof” (Dana-Farber Cancer Institute, Inc., priority 2018, dated 2026)
